Measured values: publication PMC7819943, “Rice protein-binding microarrays: a tool to detect cis-acting elements near promoter regions in rice”
The other results are listed elsewhere or left out.

Amino acid sequences for entries named in this document (tags omitted).
UniProt Q0JBA9, entry or part of it: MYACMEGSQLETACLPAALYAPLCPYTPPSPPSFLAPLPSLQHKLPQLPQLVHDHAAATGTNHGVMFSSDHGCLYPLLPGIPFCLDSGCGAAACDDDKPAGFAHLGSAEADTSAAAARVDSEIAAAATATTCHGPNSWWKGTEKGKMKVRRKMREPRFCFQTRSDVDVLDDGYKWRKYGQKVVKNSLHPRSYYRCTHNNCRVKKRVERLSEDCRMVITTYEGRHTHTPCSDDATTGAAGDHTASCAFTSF

Target: OsWRKY34 (Oryza sativa, UniProt Q0JBA9 1-250)
Assay: protein-binding microarray (RPBM); PBS, 2% BSA, 51.3 ng/ul salmon testes DNA, 50 uM zinc acetate, 200 nM TF, 25 C, 1 h; high values mean tight binding
Conditions: protein: recombinant; tags: N-terminal polyhistidine and DsRed monomer fusion (pET32a); label: CyDye5-dUTP incorporated in the synthesized complementary strand; 3' TTTTT single-stranded linker to array surface; dsDNA, one strand shown
Summary of the method: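 The binding signal is fluorescence intensity per array feature (arbitrary units). Readings came from an Axon 4000B scanner after a washed, 2% BSA-blocked, double-stranded custom Agilent array had been incubated for 1 h at 25 °C with 200 nM protein and 50 µM zinc acetate. The protein was a Ni–NTA-purified transcription factor fused N-terminally to polyhistidine and DsRed, expressed in E. coli BL21-CodonPlus.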

Sequence	binding signal
CTACTTTACCAGCTCATCTATCACATCTTAACTGTATTTTCGGAGTCACCTAGTGCAG	10300 fluorescence intensity (a.u.)
ATCCATGGGCCTCGTTGGTTATAGCCTGTGTGCATCAACACGGAGTCACCTAGTGCAG	8230 fluorescence intensity (a.u.)
GCTGTTTCCTGGAGGTTCCATCCATGCTATCCTGTGCTCGCGGAGTCACCTAGTGCAG	8470 fluorescence intensity (a.u.)
CTTTTGATTGTTCGTTTTGCTATGATTTTGTTCAAGTTAACGGAGTCACCTAGTGCAG	9180 fluorescence intensity (a.u.)
GTGTTTTTTCTATTCCTCTGTTTTTTCTACCCTGCGATTTCGGAGTCACCTAGTGCAG	10700 fluorescence intensity (a.u.)
GCAGCAGCACTCGCCACTGTTCTTTCTTTCTCTCTTTCTCCGGAGTCACCTAGTGCAG	9580 fluorescence intensity (a.u.)
CCTAAGACATCCATCATATGATGATCATGGCATCCCGCATCGGAGTCACCTAGTGCAG	9170 fluorescence intensity (a.u.)
AGTACATAATTTATTTTCATTTTACATCATATACTATGTACGGAGTCACCTAGTGCAG	8130 fluorescence intensity (a.u.)
AAATACTACCTCTGTTATATAATAGATGACGCTGTTGACTCGGAGTCACCTAGTGCAG	8900 fluorescence intensity (a.u.)
GATTTTTTTTCTTATTTTGACCATACTGTCATGCACAACTCGGAGTCACCTAGTGCAG	10400 fluorescence intensity (a.u.)
ACCCTTCTTCTTCTTCTTCTTCTTCTTCTTCTTCCTCTGACGGAGTCACCTAGTGCAG	8690 fluorescence intensity (a.u.)
CATAAGATTTGTTCTATGGATTGTTAGGCTGTGTTCCTCTCGGAGTCACCTAGTGCAG	9140 fluorescence intensity (a.u.)
TTGCAGGAAAATAGTACTACCTTCGTTTTTTTAATATGCACGGAGTCACCTAGTGCAG	8440 fluorescence intensity (a.u.)
AACTTTACACCGAATCCGATTCGTCCTTATACCTCAAAGCCGGAGTCACCTAGTGCAG	8110 fluorescence intensity (a.u.)
AAAAAAATCCATCCGTTGCGTCTTCAAATTCCATCCACGTCGGAGTCACCTAGTGCAG	8680 fluorescence intensity (a.u.)
TGGAATACATACTTTCGGTGCAGATCCGACTTCTGCCTCACGGAGTCACCTAGTGCAG	8960 fluorescence intensity (a.u.)
ATTTGATCTTTGGCAGTAAGTAATTCGGGGTTTGAAATTTCGGAGTCACCTAGTGCAG	9170 fluorescence intensity (a.u.)
ATCCTTTGTTGCGTCGCGTCTCTCCACGGCCCCGAATCGCCGGAGTCACCTAGTGCAG	8330 fluorescence intensity (a.u.)
TACCGTCTAGCTTTTCTTTCTGAGTTTTCCGTTTTTCTAGCGGAGTCACCTAGTGCAG	11600 fluorescence intensity (a.u.)
TTCACGTTCAATGTTTGACCGTTCGTCTTATTTGAAAATTCGGAGTCACCTAGTGCAG	8550 fluorescence intensity (a.u.)
TGATGGGGATATTTTGATGATTTAATCTTCTTTGATTCAACGGAGTCACCTAGTGCAG	9450 fluorescence intensity (a.u.)

Sequence	binding signal
CCGTCGGCCCGCAGTCCATATGGCCTCTTCATCGGTCTCACGGAGTCACCTAGTGCAG	9140 fluorescence intensity (a.u.)
TACTTATATTTACTTGCAGATCAGTTGCCTGCCAATACCGCGGAGTCACCTAGTGCAG	8390 fluorescence intensity (a.u.)
CACATCTCGGTCCACTGAAGACCGCGTCCATCCGCGAATCCGGAGTCACCTAGTGCAG	11800 fluorescence intensity (a.u.)
CTGTGGTTGGTTCTTGGGATCAGGTTCTCTGATTCTTGCTCGGAGTCACCTAGTGCAG	10300 fluorescence intensity (a.u.)
TTCACTCTAGTCTCGGCTAAAAAAACGTTTGACCGGGTCACGGAGTCACCTAGTGCAG	8520 fluorescence intensity (a.u.)
ACCAACCATTTAAACAGCTGACATGTTAACATATGATAAACGGAGTCACCTAGTGCAG	8130 fluorescence intensity (a.u.)
TCCAAGATCCGATTCCCCAACCACTGCTCAGTCGCCTAAACGGAGTCACCTAGTGCAG	8210 fluorescence intensity (a.u.)
ACCAAATCTTTCGTCTGCGCATGAACTTCTTCTGAAATTTCGGAGTCACCTAGTGCAG	11000 fluorescence intensity (a.u.)
GTTCAATTAATTCCCACCGTTGGTGATCCATGTTTTATATCGGAGTCACCTAGTGCAG	8940 fluorescence intensity (a.u.)
CACTGTGTCGTGCTTCATCCATCTTAAAATAATCTTATCTCGGAGTCACCTAGTGCAG	8550 fluorescence intensity (a.u.)
ATTTAAATTTTAGCTTATACTACCTCCGTCCCATTATAAGCGGAGTCACCTAGTGCAG	8220 fluorescence intensity (a.u.)
CGCGTGAATGGGCGGGCTACCTTTCTAGTTGTACTAAATCCGGAGTCACCTAGTGCAG	9650 fluorescence intensity (a.u.)
CGCTCCACATAGGCTAGGCCCATGTCCCTTAGAGGATCCTCGGAGTCACCTAGTGCAG	8380 fluorescence intensity (a.u.)
GCGCAACTGGCAGATTCGTGGGGATTCGTGGGGATAATATCGGAGTCACCTAGTGCAG	10900 fluorescence intensity (a.u.)
GTATCCGTATAAGACATGGTATGTGGTGGGTTCTGCCAAGCGGAGTCACCTAGTGCAG	8040 fluorescence intensity (a.u.)
ATACCTTCCACTTCCCGGCCCCGCCGCCGTTCCTGCCCCTCGGAGTCACCTAGTGCAG	9050 fluorescence intensity (a.u.)
AAAATTCTTATTACGTGGGCGGTGGGCTAACATGCTTTAACGGAGTCACCTAGTGCAG	9900 fluorescence intensity (a.u.)
TATATATATATATATATATATATAAAGAACACACAAAAAACGGAGTCACCTAGTGCAG	8150 fluorescence intensity (a.u.)
AGGCATTAGTTACCTGGTTTTGCGATTGAGTATATGAATCCGGAGTCACCTAGTGCAG	9400 fluorescence intensity (a.u.)
GCAACATCGCGGTCAAGCTACCGGACAACTCGACCGACCACGGAGTCACCTAGTGCAG	8430 fluorescence intensity (a.u.)
TCCCTATCAGCTCAGGTCTCTCTCGATCTCTCCTAGCTAGCGGAGTCACCTAGTGCAG	9650 fluorescence intensity (a.u.)

Sequence	binding signal
GCTGTGTGAACTTCTTTTTTCGTGACAAGTTTAATTCTTTCGGAGTCACCTAGTGCAG	12400 fluorescence intensity (a.u.)
AGCCACAACCCGCTGGCCAAATCGCTTGCGCTCTATCGCACGGAGTCACCTAGTGCAG	8240 fluorescence intensity (a.u.)
TAGCCATCGCCACCACCACCGCCACCGCCACCGCCACGCTCGGAGTCACCTAGTGCAG	8660 fluorescence intensity (a.u.)
TACTCGCTTCGTCCCACACGAAGATTTCATTTTTCAGTTTCGGAGTCACCTAGTGCAG	9060 fluorescence intensity (a.u.)
ACCGTGTTGCTGCCTGGTGCTCGCTTTGTTCGTAGGCCTTCGGAGTCACCTAGTGCAG	8520 fluorescence intensity (a.u.)
AAGTGTCTTCCTGCTGATATCTCCCATCTGTCCCCTATTGCGGAGTCACCTAGTGCAG	8460 fluorescence intensity (a.u.)
GAGTCATAGTAGTGTAGTAGTGGGTCAACTCAGTCAAGTCCGGAGTCACCTAGTGCAG	8290 fluorescence intensity (a.u.)
CTTCTCTCTCTCTGCATCCAGCCGATATATATACCACCAGCGGAGTCACCTAGTGCAG	10100 fluorescence intensity (a.u.)
TCTTCCTCAGATACTGATTGCCATTGTTTTGCAGGTCTCTCGGAGTCACCTAGTGCAG	10700 fluorescence intensity (a.u.)
CATGCCCAATACCTCACATGATTATTTTGTTCACATCGTACGGAGTCACCTAGTGCAG	13500 fluorescence intensity (a.u.)
TTCATTTTGTTGGCTAGAGTGTAGTTTGGATTTTGATGGCCGGAGTCACCTAGTGCAG	8180 fluorescence intensity (a.u.)
GGTTTCTTCTCATTCTTCTTTTTTTCCTTTTTTCTACACGCGGAGTCACCTAGTGCAG	14000 fluorescence intensity (a.u.)
ATTTCCCACCCAATCTCCCGGCCTGCTTCCTTCACACGAGCGGAGTCACCTAGTGCAG	8040 fluorescence intensity (a.u.)
AAGTTTATTTTTCACCCATTCTACACATACCCATACAAAACGGAGTCACCTAGTGCAG	8240 fluorescence intensity (a.u.)
GACTAATAGCTTCAGTTTTGCATGCGATGGCCACTCAAATCGGAGTCACCTAGTGCAG	10100 fluorescence intensity (a.u.)
CGCAGAACACGTTTCCCAAATCTTGTACTACTACGTACTACGGAGTCACCTAGTGCAG	9170 fluorescence intensity (a.u.)
CTCCATACCGCCGGCCTCTATAGGCGCCGCACATGTCATCCGGAGTCACCTAGTGCAG	9690 fluorescence intensity (a.u.)
ACTAATAATGAAAATTTCCACACCCTTGCTTTTCTAATTTCGGAGTCACCTAGTGCAG	9150 fluorescence intensity (a.u.)
CTCCACCGCCGCCGCCGCCGACGACGTCGCCGCCGTTCCCCGGAGTCACCTAGTGCAG	8710 fluorescence intensity (a.u.)
AGTCAATATCTTGCTTTGATACCTTTTTTTTTGCATTTTTCGGAGTCACCTAGTGCAG	8050 fluorescence intensity (a.u.)
GCCCATACCCCAATTCTCCCTACTACTTTGGGCTGAAACGCGGAGTCACCTAGTGCAG	8200 fluorescence intensity (a.u.)

Single entries from the results shown.
Entry of TAGCCATCGCCACCACCACCGCCACCGCCACCGCCACGCTCGGAGTCACCTAGTGCAG under binding signal: 8660 fluorescence intensity (a.u.)
Entry of AAGTGTCTTCCTGCTGATATCTCCCATCTGTCCCCTATTGCGGAGTCACCTAGTGCAG under binding signal: 8460 fluorescence intensity (a.u.)
Entry of CTCCATACCGCCGGCCTCTATAGGCGCCGCACATGTCATCCGGAGTCACCTAGTGCAG under binding signal: 9690 fluorescence intensity (a.u.)
Entry of TTCATTTTGTTGGCTAGAGTGTAGTTTGGATTTTGATGGCCGGAGTCACCTAGTGCAG under binding signal: 8180 fluorescence intensity (a.u.)
Entry of TCTTCCTCAGATACTGATTGCCATTGTTTTGCAGGTCTCTCGGAGTCACCTAGTGCAG under binding signal: 10700 fluorescence intensity (a.u.)
Entry of CTTCTCTCTCTCTGCATCCAGCCGATATATATACCACCAGCGGAGTCACCTAGTGCAG under binding signal: 10100 fluorescence intensity (a.u.)

Additional records follow:

Sequence	binding signal
TCTCCTCCGTCCGCCGCCTCCGCCGTCGCGCCGATCTCCCCGGAGTCACCTAGTGCAG	8500 fluorescence intensity (a.u.)
CTTTAAACGTTGGCCTCTTGTTAGTCGATGCAATCATCTTCGGAGTCACCTAGTGCAG	8100 fluorescence intensity (a.u.)
TTGGCGTTGTATATGTTACTGCTTCCGCCGTTCTAAAATACGGAGTCACCTAGTGCAG	8140 fluorescence intensity (a.u.)
TCCAAGTCGCCCATCATGCATCCTACGGTCTGCACACCAACGGAGTCACCTAGTGCAG	9520 fluorescence intensity (a.u.)
TCCCATCTCTCTTGTCAAGTCGTCAGCCAGCCAGCCTGCCCGGAGTCACCTAGTGCAG	13400 fluorescence intensity (a.u.)
GAGTGTGGAGGATTGAGGAATTGGGGTTTAGTTTTTATATCGGAGTCACCTAGTGCAG	13000 fluorescence intensity (a.u.)
CAATATGTGTTTATAGCTGGCTTACATTATGCTATTGTACCGGAGTCACCTAGTGCAG	8490 fluorescence intensity (a.u.)
ATCTAGCTCAATTGGCTAATTACGTGCCCAACTCAACTGCCGGAGTCACCTAGTGCAG	9550 fluorescence intensity (a.u.)
GCTAGGATGGTTTGGGATTGTGTGGGTTATGTTGTCTTTGCGGAGTCACCTAGTGCAG	9050 fluorescence intensity (a.u.)
AACGATTCGCCATCATTTTAAATGTTTTTATCGTCTATTTCGGAGTCACCTAGTGCAG	10900 fluorescence intensity (a.u.)
CCATTTATGTCGTCGCGCCCCGCCCCGCCCGCGCGCTGAGCGGAGTCACCTAGTGCAG	10200 fluorescence intensity (a.u.)
TATAATCGTGTGTTTCGTTTTCCGTGTCAGGAGGCAAGGTCGGAGTCACCTAGTGCAG	8200 fluorescence intensity (a.u.)
GAGCCACCACCGACAACATTAATCTGGCTAAGCTCAATGACGGAGTCACCTAGTGCAG	10300 fluorescence intensity (a.u.)
GTGCATGTTCGTCTATCGTGTAACTTTTTTGTTTTTCAATCGGAGTCACCTAGTGCAG	8800 fluorescence intensity (a.u.)
ACTGTTATTATTTTTTCAATGTTTTTCATGTCTGTTTGTCCGGAGTCACCTAGTGCAG	10900 fluorescence intensity (a.u.)
TCATTTGATGTAATAGTCCCCGTTGTTTATCTTTTCTAATCGGAGTCACCTAGTGCAG	9720 fluorescence intensity (a.u.)
CGTCCTCGGCACCAAACTCCTGCTACCTCGATGTCTTGATCGGAGTCACCTAGTGCAG	12100 fluorescence intensity (a.u.)
GCTCGGCCCAGCCCACTACAAGCCCAATTCAATTGCATTCCGGAGTCACCTAGTGCAG	8510 fluorescence intensity (a.u.)
AAACCATTCCAGAAGTTACTTGAAGTTTGACATTTCATCCCGGAGTCACCTAGTGCAG	8140 fluorescence intensity (a.u.)
TTGCTGACTTTCAATTCATTTTTACGATTTTACATCTATACGGAGTCACCTAGTGCAG	9390 fluorescence intensity (a.u.)
GGACATGACACCCTGCTTGCTACTGCTATACACATGTTCTCGGAGTCACCTAGTGCAG	9110 fluorescence intensity (a.u.)
